# Results of single-concentration screens

The values are deposited in ChEMBL (CHEMBL3988442, “University of Dundee, Small-Polar-MMV Screening Library” (2021)).

T. brucei: 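Whole-parasite assay of Trypanosoma brucei over 72 hours; the read-out is not stated. Compounds at 30 µM. The record gives no direction; compounds that gave an IC50 in retests scored well above the rest, so higher reads as stronger inhibition. Values scatter widely below zero; nearly all retest evidence comes from the higher of the two concentrations used. About 64,000 compounds were tested under these conditions; 1.5% (about 940) showed 50% or more at least once.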
Leishmania in macrophages: 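Cell assay of Leishmania donovani living inside macrophages; the read-out is not stated. Tested at 30 µM. Direction is inferred from retests: higher values go with stronger inhibition. Of about 69,000 compounds tested this way, about 1,000 (1.5%) reached 50% or more in at least one test.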

Each number is a percent effect as filed.
How 0% and 100% were set is not recorded. Most values in the screen are low, and negative values occur.
This is an unselected part of the compounds tested.
Two or more numbers in one place are separate tests of the same structure; such repeats can differ widely.

{"structure": "COc1cc(C(=O)N2CCC(c3n[nH]c(C4CC4)n3)CC2)ccc1C", "T. brucei": -3.755, "Leishmania in macrophages": -23.75}
{"structure": "COc1ncccc1CNC(=O)c1cccc(C)n1", "T. brucei": -47.87, "Leishmania in macrophages": 7.094}
{"structure": "CS(=O)(=O)Cc1ccc(CNC(=O)c2cccnc2O)cc1", "T. brucei": 27.38, "Leishmania in macrophages": 17.26}
{"structure": "[H][C@@]12CS(=O)(=O)C[C@]1([H])N(Cc1nc3ccccc3[nH]1)CCN2CCC", "T. brucei": -126.8, "Leishmania in macrophages": 2.823}
{"structure": "CCOc1ccc([C@@H]2N[C@H](c3nccs3)Cc3ccsc32)cc1OC", "T. brucei": 10.72, "Leishmania in macrophages": -5.527}
{"structure": "Cc1ccc(Oc2ncccc2C(=O)N(C)CCCN(C)C)cc1", "T. brucei": -7.279, "Leishmania in macrophages": 45.08}
{"structure": "CCC(C)(COc1ncccc1Cl)NCC(=O)NCC(C)C", "stereo": "configuration not stated", "T. brucei": -31.89, "Leishmania in macrophages": -18.2}
{"structure": "CN(Cc1ncnn1C1Cc2ccccc2C1)C1CCS(=O)(=O)C1", "stereo": "configuration not stated", "T. brucei": -30.69, "Leishmania in macrophages": 36.77}
{"structure": "Cc1n[nH]cc1CNC(C(=O)N1CCCCC1)c1ccccc1", "stereo": "configuration not stated", "T. brucei": -85.32, "Leishmania in macrophages": -6.405}
{"structure": "Cc1ccc2c(c1)CCC21CCN(C(=O)CO)CC1", "T. brucei": -15.66, "Leishmania in macrophages": 33.07}
{"structure": "CN(Cc1cc(Br)cn1C)C(=O)c1cc(Cl)ccn1", "T. brucei": -6.363, "Leishmania in macrophages": 4.255}
{"structure": "CC(C)NC(=O)C1CN(Cc2cccs2)Cc2ccnn2C1", "stereo": "configuration not stated", "T. brucei": -10.36, "Leishmania in macrophages": "-46.54 & 21.13"}
{"structure": "CC(C)Cc1cc(CC2(NCc3ccco3)COC2)no1", "T. brucei": -6.665, "Leishmania in macrophages": 63.35}
{"structure": "O=C1CC(c2cccs2)c2snc(C(=O)O)c2N1", "stereo": "configuration not stated", "T. brucei": -40.7, "Leishmania in macrophages": 0.3617}
{"structure": "O=C(O)C(F)(F)F.O=C(O)C(F)(F)F.[H][C@@]12COC[C@]1(CN1CCOCC1)CN(S(=O)(=O)c1cccnc1)C2", "T. brucei": -18.7, "Leishmania in macrophages": "-27.57 & 3.737"}
{"structure": "CC(C)c1nc(CN(C)C(=O)CCS(=O)(=O)c2ccccc2)no1", "T. brucei": -20.36, "Leishmania in macrophages": 23.54}
{"structure": "O=C(CN1C(=O)CCC1=O)NCc1nn(C2CCCC2)c2c1CCCC2", "T. brucei": 13.09, "Leishmania in macrophages": "15.07 & 6.786"}
{"structure": "CN1CC(C(=O)NC(C)(C)C)CC1=O", "stereo": "configuration not stated", "T. brucei": -47.15, "Leishmania in macrophages": 25.82}
{"structure": "CC(C)(C)N1CC(C(=O)N2CCN(CCn3cccc3)CC2)CC1=O", "stereo": "configuration not stated", "T. brucei": 15.98, "Leishmania in macrophages": 13.79}
{"structure": "O=C(CN1CCOCC1)N1CCN(C2CCc3ccc(F)cc32)CC1", "stereo": "configuration not stated", "T. brucei": -25.47, "Leishmania in macrophages": 19.77}
{"structure": "CCc1cccc(NC(=O)CCC(=O)N(C)Cc2nc(C)c[nH]2)c1", "T. brucei": -59.3, "Leishmania in macrophages": 21.81}
{"structure": "COc1ccccc1NC(=O)NCC(O)(c1ccccc1)C1CC1", "stereo": "configuration not stated", "T. brucei": -61.7, "Leishmania in macrophages": 3.651}
{"structure": "CCc1nc(C2CCCN(C(=O)c3ccc4[nH]cnc4c3)C2)no1", "stereo": "configuration not stated", "Leishmania in macrophages": 2.21}
{"structure": "O=C(CC1CC2(CCN(CC3CC3)CC2)Oc2ccccc21)NC1CC1.O=C(O)C(F)(F)F", "stereo": "configuration not stated", "T. brucei": 11.6, "Leishmania in macrophages": 9.099}
{"structure": "O=C(CCCc1cn[nH]c1)N1C[C@H](CO)C[C@H](CN2CCCC2)C1", "T. brucei": 11.16, "Leishmania in macrophages": 28.1}
{"structure": "Cc1cccc(CN2CCC3(CCCN(Cc4cnn(C)c4)C3)C2)n1.O=C(O)C(F)(F)F.O=C(O)C(F)(F)F", "stereo": "configuration not stated", "T. brucei": -4.505, "Leishmania in macrophages": 37.49}
{"structure": "CC(NCCCN1CCCN(C)CC1)C(C)(C)C", "stereo": "configuration not stated", "T. brucei": -44.66, "Leishmania in macrophages": "21.11 & -8.043"}
{"structure": "Cc1ncsc1C(=O)N1CCc2nnc(C3CCCCN3C)n2CC1", "stereo": "configuration not stated", "T. brucei": -11.35, "Leishmania in macrophages": -21.39}
{"structure": "N#Cc1c(Cl)nsc1NCc1ccc(N2CCCC(C(N)=O)C2)cc1", "stereo": "configuration not stated", "T. brucei": -6.411, "Leishmania in macrophages": 27.85}
{"structure": "O=C(Nc1cc(C(F)(F)F)c[nH]c1=O)C1CCCNC1", "stereo": "configuration not stated", "T. brucei": -32.85, "Leishmania in macrophages": 26.91}
{"structure": "O=C(O)C(F)(F)F.O=C(O)C(F)(F)F.O=C(O)C(F)(F)F.[H][C@@]12CCCO[C@]1([H])[C@H](N1CCN(C)CC1)CN2Cc1cc(C)c(C)o1", "T. brucei": -91.32, "Leishmania in macrophages": 33.56}
{"structure": "CNC(=O)c1cn2cc(-c3ccccc3Cl)n(CC=C(C)C)c(=O)c2n1", "T. brucei": -131.5, "Leishmania in macrophages": -1.093}
{"structure": "Cc1ccc(C(=O)N(C)CC(=O)NCC(F)(F)F)cn1", "T. brucei": -15.76, "Leishmania in macrophages": 43.61}
{"structure": "O=C(NCC1CC(=O)N(CCc2ccccc2)C1)c1c(F)cccc1F", "stereo": "configuration not stated", "T. brucei": -18.81, "Leishmania in macrophages": 6.817}
{"structure": "COc1cc(CNC(C)c2cccc(Cl)c2)cc(OC)c1OC", "stereo": "configuration not stated", "T. brucei": -4.547, "Leishmania in macrophages": 29.36}

2 of the entries, repeated:

| structure | T. brucei | Leishmania in macrophages |
|---|---|---|
| `O=C(NCC1CC(=O)N(CCc2ccccc2)C1)c1c(F)cccc1F` (configuration not stated) | -18.81 | 6.817 |
| `CCC(C)(COc1ncccc1Cl)NCC(=O)NCC(C)C` (configuration not stated) | -31.89 | -18.2 |